This is an account of results in paper doi:10.1101/2023.09.20.558697.

In this data set the target is T1, RokL6-His6 (Streptomyces coelicolor A3(2) M145) (UniProt Q9L112).
T1 sequence (looked up): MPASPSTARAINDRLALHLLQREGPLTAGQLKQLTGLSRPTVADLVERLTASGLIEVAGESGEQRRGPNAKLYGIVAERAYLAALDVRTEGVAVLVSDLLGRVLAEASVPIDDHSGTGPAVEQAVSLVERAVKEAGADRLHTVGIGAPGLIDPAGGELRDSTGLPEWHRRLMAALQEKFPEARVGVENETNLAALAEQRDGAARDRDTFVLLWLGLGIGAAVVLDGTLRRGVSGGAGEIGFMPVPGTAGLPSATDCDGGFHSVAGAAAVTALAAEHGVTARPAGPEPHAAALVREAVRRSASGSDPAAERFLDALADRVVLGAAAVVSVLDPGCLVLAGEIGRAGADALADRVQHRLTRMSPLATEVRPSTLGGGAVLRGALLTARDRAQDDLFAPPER
Briefly: EMSA. The conditions noted are these: 0.1-0.5 uM RokL6-His6; residues 1-399. (Mobility shift assays separate free from complexed probe on a gel.)

Weaker means in comparison with the reference protein, sequence or condition of that experiment. Protein sequences can lack the tags named with them.

Consider “CGCACCGGTAATCCACTATCGAATTCGCAGGCTCCCTGATAGTTTACGCCGCGGATTGAC (double strand) [RokL6-M1]”, for which the binding result is “binds more weakly”.

As for “CGCACCGGTAATCCACTATCTATCAGGCAGGCTCCGAATTCGTTTACGCCGCGGATTGAC (double strand) [RokL6-M2]”, the binding result is “binds more weakly”.
